From patent publication US20110131688A1
Results are given in words; binding and its absence hold for the method and conditions named. Some binding calls cover weakened binding; strength is not graded here.

T1: EIN3 full-length protein (ETHYLENE-…3 transcription factor) (Arabidopsis) (UniProt O24606)
T1 sequence: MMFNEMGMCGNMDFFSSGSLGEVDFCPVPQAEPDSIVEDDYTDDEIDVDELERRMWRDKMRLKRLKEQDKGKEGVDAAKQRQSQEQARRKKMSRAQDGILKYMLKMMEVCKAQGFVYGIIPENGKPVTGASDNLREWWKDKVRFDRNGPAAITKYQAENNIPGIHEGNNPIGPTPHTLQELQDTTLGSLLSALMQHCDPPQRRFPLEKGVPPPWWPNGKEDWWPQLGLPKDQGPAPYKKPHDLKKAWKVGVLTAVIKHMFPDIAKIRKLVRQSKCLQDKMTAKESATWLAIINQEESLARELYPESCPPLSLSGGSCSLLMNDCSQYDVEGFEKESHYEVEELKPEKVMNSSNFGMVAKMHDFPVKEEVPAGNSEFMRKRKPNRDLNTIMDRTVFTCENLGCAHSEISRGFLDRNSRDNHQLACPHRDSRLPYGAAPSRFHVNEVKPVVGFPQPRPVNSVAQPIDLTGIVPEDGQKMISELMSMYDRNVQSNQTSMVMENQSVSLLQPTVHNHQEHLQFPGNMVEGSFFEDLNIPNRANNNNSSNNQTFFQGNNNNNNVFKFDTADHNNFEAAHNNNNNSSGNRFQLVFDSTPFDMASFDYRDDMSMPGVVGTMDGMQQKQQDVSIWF


What was measured:
[1] = target: T1, EIN3 full-length protein (ETHYLENE-…3 transcription factor) (Arabidopsis); experiment: yeast two-hybrid, filter-lift beta-galactosidase
[2] = target: T1, EIN3 full-length protein (ETHYLENE-…3 transcription factor) (Arabidopsis); experiment: yeast two-hybrid

Row | binding [1] | binding [2] | Binder
1 | binds | binds | EBF2 C-terminal LRR domain (protein) EEGEGFLSRSLEGKKATDLRLAAIAVGTSSRGGLGKLQIRGSGFESKVTDVGLGAVAHGCPSLRIVSLWNLPAVSDLGLSEIARSCPMIEKLDLSRCPGITDSGLVAIAENCVNLSDLTIDSCSGVGNEGLRAIARRCVNLRSISIRSCPRIGDQGVAFLLAQAGSYLTKVKLQMLNVSGLSLAVIGHYGAAVTDLVLHGLQGVNEKGFWVMGNAKGLKKLKSLSVMSCRGMTDVGLEAVGNGCPDLKHVSLNKCLLVSGKGLVALAKSALSLESLKLEECHRINQFGLMGFLMNCGSKLKAFSLANCLGISDFNSESSLPSPSCSSLRSLSIRCCPGFGDASLAFLGKFCHQLQDVELCGLNGVTDAGVRELLQSNNVGLVKVNLSECINVSDNTVSAISVCHGRTLESLNLDGCKNITNASLVAVAKNCYSVNDLDISNTLVSDHGIKALASSPNHLNLQVLSIGGCSSITDKSKACIQKLGRTLLGLNIQRCGRISSSTVDTLLENLWRCDILY
2 | binds | binds | EBF1 C-terminal LRR domain (protein) PSKITEDGDDCEGCLSRSLDGKKATDVRLAAIAVGTAGRGGLGKLSIRGSNSAKVSDLGLRSIGRSCPSLGSLSLWNVSTITDNGLLEIAEGCAQLEKLELNRCSTITDKGLVAIAKSCPNLTELTLEACSRIGDEGLLAIARSCSKLKSVSIKNCPLVRDQGIASLLSNTTCSLAKLKLQMLNVTDVSLAVVGHYGLSITDLVLAGLSHVSEKGFWVMGNGVGLQKLNSLTITACQGVTDMGLESVGKGCPNMKKAIISKSPLLSDNGLVSFAKASLSLESLQLEECHRVTQFGFFGSLLNCGEKLKAFSLVNCLSIRDLTTGLPASSHCSALRSLSIRNCPGFGDANLAAIGKLCPQLEDIDLCGLKGITESGFLHLIQSSLVKINFSGCSNLTDRVISAITARNGWTLEVLNIDGCSNITDASLVSIAANCQILSDLDISKCAISDSGIQALASSDKLKLQILSVAGCSMVTDKSLPAIVGLGSTLLGLNLQQCRSISNSTVDFLVERLYKCDILS
